## Library screen at single concentrations

Measurements from “University of Dundee, Small-Polar-MMV Screening Library” (2021), ChEMBL document CHEMBL3988442.

Mtb glucose medium: 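Phenotypic screen: M. tuberculosis growth, glucose 7H9 medium, 3 days; the read-out is not stated. Tested at 50 µM. The record gives no direction; compounds that gave an IC50 in retests scored well above the rest, so higher reads as more growth inhibition. Of about 69,000 compounds tested this way, about 760 (1.1%) reached 50% or more in at least one test.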
Mtb cholesterol medium: 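Growth of Mycobacterium tuberculosis over 4 days (cholesterol / DPPC medium with tyloxapol); the read-out is not stated. Tested at 50 µM. The record gives no direction; compounds that gave an IC50 in retests scored well above the rest, so higher reads as more growth inhibition. Of about 69,000 compounds tested this way, about 370 (0.54%) reached 50% or more in at least one test.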

Values are the deposited “Percent Effect”, in %.
The controls that fix the scale are not given in the record; negative values are as filed.
This is an unselected part of the compounds tested.
Two or more numbers in one place are separate tests of the same structure; such repeats can differ widely.

structure,Mtb glucose medium,Mtb cholesterol medium
CC(C)Cc1cc(C(=O)NC(C)(C)c2nnc(N)s2)n(C)n1,-3.957% & 23.84%,17.72%
CC(C)OCCCN(Cc1cnn(C)c1)Cc1ccccn1.O=C(O)CC(O)(CC(=O)O)C(=O)O,-18.78%,-17.65%
Cn1cc(CN2CCOC3(CCCN(C(=O)c4ccco4)C3)C2)cn1.O=C(O)C(F)(F)F (stereo unspecified),24.55%,-15.52%
O=C(C1CCCO1)N1CCCn2c(nnc2Cn2ccnc2)C1.O=C(O)C(F)(F)F (stereo unspecified),11.63% & 3.049%,13.92%
c1cc2c(cc1-c1noc3c1CN(C1CCC1)CC3)OCO2,31.05%,14.07%
Cc1ccc(C(=O)Nc2nn[nH]n2)s1,11.99% & 3.204%,5.622%
O=C(O)C(F)(F)F.[H][C@@]12CN(Cc3cccs3)CCC[C@]1(C(=O)O)CN(c1ncccn1)C2,-0.7058% & -3.595%,-15.68%
COc1cccc(/C=C/CCN2CCN(S(C)(=O)=O)CC2)c1,9.201% & -15.33%,10.41%
Cc1cc(NC(=O)CN2CCn3c(nnc3C3CC3)C2)no1,-6.719%,-0.3085%
CN1C[C@@H](NC(=O)CC(C)(C)C)C[C@H]1c1nc(-c2cnccn2)no1,14.75% & 13.84%,-2.611%
COCCN1CCC(c2ncc(C(=O)N3CCOCC3)c(C)n2)CC1,13.14%,11.38%
COc1ccccc1C(O)CNC(=O)NCc1csc(C)n1 (stereo unspecified),-28.44% & 0.4063%,4.119%
Cc1occc(=O)c1OCc1noc(C(=O)NC2CCCC2)n1,-10.89%,-7.91%
CSCC(=O)Nc1cccc(Oc2ccccn2)c1,5.941%,-8.275% & 4.208%
O=C(NS(=O)(=O)c1cccnc1)C1CC(c2ccccc2)=NO1 (stereo unspecified),-2.913% & 7.089%,0.7896%
COc1ccccc1C1=NOC(CC2(C(=O)O)CCOCC2)C1 (stereo unspecified),20.03%,-23.49%
O=C(CSCc1ccccn1)NCC1CC1,-7.894%,-14.51%
Cc1cccc(C(=O)N2Cc3ccccc3C3(CCN(C)CC3)C2)n1,-19.45%,-10.79%
CCN(CC)C(=O)c1nc2c(s1)CCN(C(=O)Nc1ccccc1)CC2,-17.15%,-7.342%
OCCn1nnnc1Cc1ccc(Br)cc1,41.85%,18.72%
CCOc1ccc(Cl)cc1C(C(=O)O)N1CCCC1 (stereo unspecified),-15.7%,-22.91%
CCOc1nnc(CN2CCC(N(C)Cc3noc(C)n3)C2)s1 (stereo unspecified),-3.706%,-19.89%
N#CC1COCCN1C(=O)c1ccc2[nH]cnc2c1 (stereo unspecified),-5.472%,-3.976%
O=C(Nc1ccc2c(c1)OC1(CCCCC1)O2)c1ccc(=O)[nH]n1,21.64% & 5.806%,-5.107%
Cc1nc2cc(C(=O)N3C[C@@H](NS(C)(=O)=O)[C@H](C(C)C)C3)ccc2[nH]1,2.109%,-10.6%
Cn1c(CN2CCCCC2)nnc1C1CCN(c2nccc(N)n2)CC1,-3.824% & -10.17%,-2.25% & -14.45%
N#Cc1ccc(C(=O)N2CCC3(CC2)CC3)cc1,26.4%,18.41%
COCC(=O)NCCc1ccc(I)s1,53.21%,32.47%
O=C(CCc1cscn1)N1CCCC(n2cncn2)C1 (stereo unspecified),-19.31%,-17.06%
O=C(Nc1ccccc1)[C@H]1O[C@H](CCN2CCCCC2)CC[C@@H]1O,14.99% & 9.636%,-2.92%
CCN(C(=O)NCCc1ccccc1Cl)C(C)CS(C)(=O)=O (stereo unspecified),4.978%,-17%
Cc1nc(NS(=O)(=O)c2ccc(F)c(Br)c2)no1,8.934% & 16.98%,14.8%
Cc1cc(C)c2c(C(=O)N(C)C)cc(-c3cnc(N)nc3)nc2c1,11.25%,10.98%
Cc1ccc(C(NC(=O)Cn2cc(C3CC3)nn2)C2CC2)cc1 (stereo unspecified),-12.61% & 6.422%,3.221% & -10.12%
Cc1nnc2n1CCN(Cc1ncc(-c3ccccc3)o1)C2,-3.246%,8.642%
CCc1nc(C)c(CNC(=O)CCCN2CCCCC2)s1,-21.44%,4.356%
COc1cccc(F)c1C(C)NC(=O)NCc1cnc(C)s1 (stereo unspecified),-2.569%,-8.189%
CCc1n[nH]c(C2CN(Cc3nnc(C4CC4)n3C)CCO2)n1 (stereo unspecified),-37.54%,-37.94%
Cc1cc2c(cc1Cl)C=CC1(CCN(C(=O)N3CCOCC3)CC1)O2,0.8015%,-7.248% & 0.6634%
CN(CCC#N)C(=O)CN(C1CC1)C1CCc2ccccc21 (stereo unspecified),-9.578%,3.448%
COc1ccc(CN2CCn3cc(CNC(=O)C4CCC4)nc3C2)cc1.O=C(O)C(F)(F)F,-1.084% & -71.55%,-38.14%
O=C(c1coc(COc2ccccc2F)n1)N1CCCO1,5.078%,-2.478%
CC(C)NC(=O)N1CCC2(CC(C(=O)NCc3cccnc3)=NO2)C1 (stereo unspecified),2.048%,12.93%
COc1ccc(NC(=O)NCc2cccc(N(C)C)n2)c(Cl)c1,23.89%,16.34%
CCCC(C)(C)NC(=O)c1ccc(CC2CC(=O)NC2=O)cc1 (stereo unspecified),-3.621% & 14.65%,-0.941%
Cc1csc(Nc2nccnc2C2CCCN2CC(N)=O)n1 (stereo unspecified),-54.58%,-10.65%
Cc1cnn(CC2CN(CC(=O)N(C)Cc3ccccc3)CCO2)c1 (stereo unspecified),12.27%,-1.666%
CCOc1ccc(CNC(C)c2cccc(S(=O)(=O)NC)c2)cc1 (stereo unspecified),-0.7559% & -11.06%,3.071%
CN(Cc1noc2c1CCCC2)C(=O)Cn1cnc2ccccc2c1=O,-27.26%,-15.86%
[H][C@@]12CS(=O)(=O)C[C@]1([H])N(Cc1ccc(CCC)o1)CCN2C(=O)N(C)C,11.5%,16.44%
Cc1nc(NCc2cccc(F)c2)cc(C2CCNCC2)n1.Cl,22.5%,15.73%
O=C(c1ccc2c(c1)CCO2)N1CCN(c2cnccn2)CC1,-37.07% & 6.322%,-6.394%